Data from PMC9203742 (Nature Communications, 2022).
“And” between values parts separate entries of the source, which are not always exact repeats. Identical values can stand only once. The source gives many values for each of these; only a part stands here.

How the values were obtained:
Type in all cases: cell-based, mouse
[1] = system: Purkinje cells in cerebellar slices from mGlu1^CBC/CBC mice; test: chemLTD recording (PF-EPSC) in Purkinje cells of acute cerebellar slices, mGlu1^CBC/CBC mice; details: mGlu1CBC/CBC, individual cells
Procedure: (§1) Sagittal cerebellar slices were cut with a microslicer (Linear slicer Pro7; DOSAKA EM) in cutting solution buffer and then incubated in ACSF gassed with 5% CO2 and 95% O2 at room temperature.
(§2) Whole-cell patch-clamp recordings were made from visually identified Purkinje cells using a 60× water-immersion objective attached to an upright microscope (BX51WI, Olympus) at room temperature, as described previously. […] Picrotoxin (100 µM; Sigma) was always added to the saline to block inhibitory synaptic transmission.
(§3) To evoke EPSCs derived from CF (CF-EPSCs) and PF (PF-EPSCs) inputs onto Purkinje cells, square pulses were applied through a stimulating electrode placed on the granular layer and the molecular layer (50 µm away from the pial surface), respectively. The selective stimulation of CFs and PFs was confirmed by the paired-pulse depression (PPD) and paired-pulse facilitation (PPF) of EPSC amplitudes at a 50-ms interstimulus interval (ISI), respectively.
(§4) For the LTD sessions, PF-EPSCs were recorded successively at a frequency of 0.1 Hz from Purkinje cells clamped at –80 mV. After a stable PF-EPSC amplitude had been observed for at least 5 min, a conjunctive stimulation that consisted of 30 single PF stimuli together with a 200 ms depolarizing pulse from a holding potential of –60 to +20 mV was applied for LTD induction.
(§5) To chemically induce LTD (chemLTD), 50 µM (S)-3,5-dihydroxyphenylglycine (DHPG) or 1 µM Pd(sulfo-bpy) was applied for 10 min in a current-clamp mode. We often observed a transient decrease in PF-EPSC amplitude after the application of each drug probably because Purkinje cells under current-clamp conditions excite spontaneously to suppress presynaptic function through the retrograde signaling. Access resistances were monitored every 10 s by measuring the peak currents in response to 2 mV, 50-ms hyperpolarizing steps throughout the experiments; the measurements were discarded if the resistance changed by >20% of its original value. The normalized EPSC amplitude on the ordinate represents the EPSC amplitude for the average of six traces for 1 min divided by that of the average of six traces for 1 min immediately before the conjunctive stimulation or the drug application.

[2] = system: Purkinje cells in cerebellar slices from mGlu1^+/+ mice; test: chemLTD recording (PF-EPSC) in Purkinje cells of acute cerebellar slices, mGlu1^+/+ mice; details: individual cells
Procedure: as §1, §2, §3, §4, §5

[3] = system: GFP-positive Purkinje cells infected with AAV-L7-mGlu1^CBC; test: chemLTD recording in GFP-positive Purkinje cells, slices infected with AAV-L7-mGlu1^CBC; details: AAV-L7-mGlu1CBC

SMILES: Cc1ccnc(-c2cc(COCCCS(=O)(=O)[O-])ccn2)c1.[Cl][Pd][Cl].[Na+] [Pd(sulfo-bpy)]
- PF-EPSC amplitude relative to time 0 ([1]; time 28 min): 0.6819 and 0.685 and 0.6795 and 1.126 and 0.6709 and 0.691 and 0.6293 and 0.5103 and 0.8053 and 0.5809 and 0.3534
- PF-EPSC amplitude relative to time 0 ([1]; time 29 min): 0.6577 and 0.6541 and 0.7016 and 1.16 and 0.6685 and 0.6764 and 0.6466 and 0.5951 and 0.7476 and 0.5988 and 0.5222
- PF-EPSC amplitude relative to time 0 ([1]; time 30 min): 0.6265 and 0.7297 and 0.6719 and 1.173 and 0.6769 and 0.6232 and 0.5876 and 0.5996 and 0.8849 and 0.6207 and 0.4079
- PF-EPSC amplitude relative to time 0 ([1]; time 31 min): 0.6315 and 0.5851 and 0.6853 and 1.165 and 0.7105 and 0.6077 and 0.6511 and 0.6486 and 0.8265 and 0.605 and 0.548
- PF-EPSC amplitude relative to time 0 ([1]; time 32 min): 0.6195 and 0.6305 and 0.6584 and 1.111 and 0.6418 and 0.7012 and 0.6175 and 0.5917 and 0.7819 and 0.6731 and 0.5877
- PF-EPSC amplitude relative to time 0 ([1]; time 33 min): 1.073 and 0.6193 and 0.6562 and 1.159 and 0.6348 and 0.6169 and 0.6411 and 0.6031 and 0.7758 and 0.6345 and 0.5154
- PF-EPSC amplitude relative to time 0 ([1]; time 34 min): 1.04 and 0.5461 and 1.165 and 1.14 and 0.5233 and 0.6196 and 0.5902 and 0.5519 and 0.7959 and 0.6789 and 0.4906
- PF-EPSC amplitude relative to time 0 ([1]; time 35 min): 0.5461 and 0.5469 and 1.0767 and 1.071 and 0.653 and 0.5726 and 0.5871 and 0.6113 and 0.7703 and 0.8457 and 0.4521
- PF-EPSC amplitude relative to time 0 ([2]; time 23 min): 0.7917 and 0.9349 and 1.052 and 0.9311
- PF-EPSC amplitude relative to time 0 ([2]; time 24 min): 1.079 and 0.8774 and 0.8838 and 1.117 and 0.7448 and 0.8818 and 1.061 and 1.065
- PF-EPSC amplitude relative to time 0 ([2]; time 25 min): 1.072 and 0.8039 and 0.7804 and 1.073 and 0.7598 and 0.9701 and 1.143 and 0.9212
- PF-EPSC amplitude relative to time 0 ([2]; time 26 min): 1.036 and 0.8938 and 0.875 and 1.146 and 0.8379 and 0.8585 and 1.035 and 0.9704
- PF-EPSC amplitude relative to time 0 ([2]; time 27 min): 0.8542 and 0.878 and 0.8042 and 1.138 and 0.8864 and 0.9374 and 0.9944 and 0.9213
- PF-EPSC amplitude relative to time 0 ([2]; time 28 min): 1.174 and 0.8151 and 0.9718 and 1.243 and 0.9188 and 0.9457 and 0.9397 and 0.9758
- PF-EPSC amplitude relative to time 0 ([2]; time 29 min): 1.275 and 0.8047 and 1.082 and 1.134 and 0.9706 and 0.9397 and 1.063 and 0.9016
- PF-EPSC amplitude relative to time 0 ([2]; time 30 min): 1.209 and 0.9826 and 0.9243 and 0.8821 and 0.9035 and 0.6989 and 0.9406 and 0.9459
- PF-EPSC amplitude relative to time 0 ([2]; time 31 min): 1.096 and 0.9734 and 0.9056 and 0.715 and 0.9557 and 1.068 and 0.9594 and 0.951
- PF-EPSC amplitude relative to time 0 ([2]; time 32 min): 1.227 and 1.079 and 0.873 and 1.19 and 0.8908 and 0.9497 and 1.059 and 0.9301
- PF-EPSC amplitude relative to time 0 ([2]; time 33 min): 1.2674 and 0.9682 and 0.8905 and 1.006 and 0.8768 and 0.8911 and 0.9085 and 0.9413
- PF-EPSC amplitude relative to time 0 ([2]; time 34 min): 1.172 and 0.8882 and 0.887 and 1.117 and 0.8783 and 1.139 and 0.9717 and 0.9285
- PF-EPSC amplitude relative to time 0 ([2]; time 35 min): 1.249 and 0.8069 and 0.9633 and 1.305 and 0.9135 and 0.9768 and 1.001 and 0.9489
- PF-EPSC amplitude normalized to time 0, individual Purkinje cells ([3]; Time 25 min): 0.862 and 0.61 and 0.944 and 0.587 and 0.805
- PF-EPSC amplitude normalized to time 0, individual Purkinje cells ([3]; Time 26 min): 0.4944 and 0.6562 and 0.7821 and 0.6522 and 0.9738 and 0.5721 and 0.7975
- PF-EPSC amplitude normalized to time 0, individual Purkinje cells ([3]; Time 27 min): 0.5827 and 0.7214 and 0.6652 and 0.6239 and 0.941 and 0.5054 and 0.8456
- PF-EPSC amplitude normalized to time 0, individual Purkinje cells ([3]; Time 28 min): 0.6398 and 0.6872 and 0.5906 and 0.5735 and 0.9266 and 0.5925 and 0.8256
- PF-EPSC amplitude normalized to time 0, individual Purkinje cells ([3]; Time 29 min): 0.6647 and 0.6813 and 0.7075 and 0.5997 and 0.9301 and 0.6112 and 0.7856
- PF-EPSC amplitude normalized to time 0, individual Purkinje cells ([3]; Time 30 min): 0.6699 and 0.6415 and 0.7376 and 0.6393 and 0.9138 and 0.5616 and 0.7359
- PF-EPSC amplitude normalized to time 0, individual Purkinje cells ([3]; Time 31 min): 0.6297 and 0.5634 and 0.7116 and 0.6582 and 0.9335 and 0.571 and 0.7292
- PF-EPSC amplitude normalized to time 0, individual Purkinje cells ([3]; Time 32 min): 0.6048 and 0.6159 and 0.7683 and 0.5824 and 0.8965 and 0.5923 and 0.7474
- PF-EPSC amplitude normalized to time 0, individual Purkinje cells ([3]; Time 33 min): 0.5723 and 0.6306 and 0.67 and 0.6221 and 0.9751 and 0.6076 and 0.6739
- PF-EPSC amplitude normalized to time 0, individual Purkinje cells ([3]; Time 34 min): 0.6195 and 0.7395 and 0.6058 and 0.5053 and 0.9588 and 0.5475 and 0.4466
- PF-EPSC amplitude normalized to time 0, individual Purkinje cells ([3]; Time 35 min): 0.5102 and 0.6678 and 0.7994 and 0.5274 and 0.9737 and 0.5592 and 0.341
- PF-EPSC amplitude normalized to time 0, individual Purkinje cells ([3]; Time 36 min): 0.6351 and 0.7241 and 0.8653 and 0.6146 and 0.9982 and 0.5624
- PF-EPSC amplitude normalized to time 0, individual Purkinje cells ([3]; Time 37 min): 0.6435 and 0.8951 and 1.128 and 0.8089 and 0.9455 and 0.6042
- PF-EPSC amplitude normalized to time 0, individual Purkinje cells ([3]; Time 38 min): 0.6069 and 1.7 and 0.8591 and 1.3337 and 0.9315
